Data as given in PubChem BioAssay AID1053209 (Peter MacCallum Cancer Centre, 2014).

Assay: 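Knock-downs that sensitise mouse osteosarcoma cells to doxorubicin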 (follow-up of hits)
System: mouse primary osteosarcoma cells
Knock-down reagent: single siRNA against mouse genes, 25 nM (text also states 40 nM)
Time to read-out: about 120 h (48 h before drug, then 72 h with drug)
Conditions: doxorubicin 100 nM (about IC30-40), added 48 h after transfection, for 72 h
Read-out: 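Viability measured by ATP luminescence with and without doxorubicin, each replicate scaled to non-targeting siRNA NT1, averaged over two replicates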
Scale: viability with doxorubicin, vs NT1: higher = more viable cells under doxorubicin; viability without drug, vs NT1: higher = more viable cells without drug
Hit rule: 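Counted as active (class LC dox) if viability falls to 0.7 of NT1 or below under doxorubicin but stays within 0.7 to 1.1 without drug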
This is an unselected part of about 1,580 reagents. 207 of all reagents (13%) count as active. 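Rows are single siRNAs; four siRNAs per gene were tested, a gene counting as confirmed only when at least two agree.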 Entries without a mark were called inactive. Reagents against one gene are numbered here. Not all columns of the deposit are shown.

target gene	reagent	combined effect class	viability with doxorubicin, vs NT1	viability without drug, vs NT1
Son	1	low viability with and without drug	0.08	0.18
Son	2	low viability with and without drug	0.17	0.29
Son	3	low viability with and without drug	0.28	0.65
Son	4	low viability with and without drug	0.18	0.57
Ttk	1	low viability with and without drug	0.49	0.52
Ttk	2	normal viability with and without drug	1	1
Ttk	3	normal viability with and without drug	0.74	1.02
Ttk	4	normal viability with and without drug	0.74	0.8
Cebpd	1	normal viability with and without drug	1	1
Cebpd	2	normal viability with and without drug	0.96	0.98
Cebpd	3	normal viability with and without drug	0.94	1.09
Cebpd	4	normal viability with and without drug	0.76	0.86
Alyref2	1	low viability with and without drug	0.16	0.27
Alyref2	2	normal viability with and without drug	0.93	0.86
Alyref2	3	low viability with and without drug	0.24	0.38
Alyref2	4	normal viability with and without drug	1	0.83
Krtap15-1	1	normal viability with and without drug	1.01	0.92
Krtap15-1	2	normal viability with and without drug	0.84	0.93
Krtap15-1	3	normal viability with and without drug	0.9	0.98
Krtap15-1	4	normal viability with and without drug	0.92	0.99
Pcdhga10	1	low viability only with doxorubicin; normal without drug (active)	0.63	0.94
Pcdhga10	2	normal viability with and without drug	1.04	1.07
Pcdhga10	3	normal viability with and without drug	0.88	0.92
Pcdhga10	4	normal viability with and without drug	0.98	0.97
Sel1l3	1	normal viability with and without drug	0.72	0.84
Sel1l3	2	normal viability with and without drug	0.92	1
Sel1l3	3	high viability only without drug	1	1.1
Sel1l3	4	normal viability with and without drug	1.02	0.98
Nup88	1	low viability only with doxorubicin; normal without drug (active)	0.65	0.72
Nup88	2	low viability with and without drug	0.53	0.49
Nup88	3	low viability with and without drug	0.55	0.49
Nup88	4	low viability with and without drug	0.41	0.58
Txndc15	1	normal viability with and without drug	0.98	0.92
Txndc15	2	normal viability with and without drug	0.95	0.97
Txndc15	3	normal viability with and without drug	0.86	0.93
Txndc15	4	normal viability with and without drug	0.88	0.88
Rps18	1	low viability with and without drug	0.15	0.14
Rps18	2	low viability with and without drug	0.25	0.32
Rps18	3	low viability only with doxorubicin; normal without drug (active)	0.58	0.76
Rps18	4	low viability with and without drug	0.21	0.31
Rplp2	1	low viability with and without drug	0.36	0.36
Rplp2	2	low viability with and without drug	0.46	0.57
Rplp2	3	low viability with and without drug	0.46	0.48
Rplp2	4	low viability with and without drug	0.38	0.43
Bst2	1	normal viability with and without drug	0.99	0.89
Bst2	2	low viability only with doxorubicin; normal without drug (active)	0.67	0.8
Bst2	3	normal viability with and without drug	0.85	0.84
Bst2	4	normal viability with and without drug	1.04	1.04

Continued, starting with the last 4 of the part before.
target gene	reagent	combined effect class	viability with doxorubicin, vs NT1	viability without drug, vs NT1
Bst2	1	normal viability with and without drug	0.99	0.89
Bst2	2	low viability only with doxorubicin; normal without drug (active)	0.67	0.8
Bst2	3	normal viability with and without drug	0.85	0.84
Bst2	4	normal viability with and without drug	1.04	1.04
Ankle2	1	normal viability with and without drug	1.08	0.96
Ankle2	2	normal viability with and without drug	0.84	1.02
Ankle2	3	low viability only with doxorubicin; normal without drug (active)	0.7	0.86
Ankle2	4	low viability only with doxorubicin; normal without drug (active)	0.5	0.75
Msgn1	1	low viability only with doxorubicin; normal without drug (active)	0.7	0.74
Msgn1	2	normal viability with and without drug	0.94	0.94
Msgn1	3	normal viability with and without drug	0.8	0.87
Msgn1	4	normal viability with and without drug	0.9	0.88
Hps6	1	normal viability with and without drug	0.96	1.03
Hps6	2	normal viability with and without drug	1.06	0.98
Hps6	3	normal viability with and without drug	0.94	0.94
Hps6	4	normal viability with and without drug	1	1.02
Pex11g	1	normal viability with and without drug	0.86	1.06
Pex11g	2	normal viability with and without drug	0.92	0.96
Pex11g	3	normal viability with and without drug	1.08	0.98
Pex11g	4	normal viability with and without drug	0.96	0.9
Fmc1	1	normal viability with and without drug	0.99	0.97
Fmc1	2	low viability with and without drug	0.2	0.34
Fmc1	3	normal viability with and without drug	0.88	1.03
Fmc1	4	normal viability with and without drug	1.07	1.04
Sart1	1	low viability only with doxorubicin; normal without drug (active)	0.54	0.72
Sart1	2	low viability with and without drug	0.48	0.66
Sart1	3	normal viability with and without drug	0.82	0.9
Sart1	4	normal viability with and without drug	0.8	0.92
Rps4x	1	low viability with and without drug	0.45	0.6
Rps4x	2	low viability only with doxorubicin; normal without drug (active)	0.36	0.71
Rps4x	3	low viability with and without drug	0.32	0.46
Rps4x	4	low viability only with doxorubicin; normal without drug (active)	0.69	0.72
